HELM strings list residues between dots; [ac] is acetyl, [am] amide, other brackets name non-standard units.

A short description of the data set: general procedure: hybrid (solid and solution phase) peptide synthesis; 2-chlorotrityl chloride resin (2-CTC); DIC/oxyma/DIPEA (SPPS); NHS/DCC (solution C-terminal coupling). To be noted: TFA salt.
As for “PEPTIDE1{[hCys].[b3hTyr].C.[2Amb]}$PEPTIDE1,PEPTIDE1,1:R3-3:R3$$$V2.0”, the step yield was determined as 11%.

With “PEPTIDE1{[hCys].[b3hTyr].C.[3Amb]}$PEPTIDE1,PEPTIDE1,1:R3-3:R3$$$V2.0”, the step yield was 19%. Consider “PEPTIDE1{[hCys].[b3hTyr].C.[4Amb]}$PEPTIDE1,PEPTIDE1,1:R3-3:R3$$$V2.0”, for which the step yield was found to be 15%.
